The text below walks through data of PubChem BioAssay AID662 (National Center for Advancing Translational Sciences (NCATS), 2007).

In general, AC50 refers to the concentration at which the activity in the assay is half-maximal.

The list shows a part of the results. These are further read-outs of the screen, such as a control signal, another cell line or another target. No call is given for them. Most of these compounds were active or inconclusive in the main read-out, so they are no random draw. Words in brackets tell the shape of the fitted curve; partial curves, single points and poor fits give uncertain potencies.

The assay can be described thus: Cell signaling CRE-BLA (Fsk stim). As to conditions: CHO CRE-bla reporter (cAMP response element driving beta-lactamase), forskolin EC10, beta-lactamase ratio; measured here: 460 nm blue channel. The essentials:
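Modulation of forskolin signalling: compounds in titration series added with EC10 NKH 477 to CHO cells carrying a CRE-driven beta-lactamase reporter, 3 h, 37C. CCF4 FRET ratio (460/530 nm, ex 405 nm) gives %activity and AC50.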
For the molecule `CNc1nnc(CSc2nc(C)cc(C)n2)s1`, the half-maximal activity concentration (AC50) was 0.631 µM [rising, full curve, poor fit].

With `O=c1cc(CO)occ1O`, the AC50 was 31.6 µM [falling, single point].

Regarding `CCc1cc2c(CN3CCN(CC)CC3)cc(=O)oc2cc1O`, the AC50 is 10 µM [rising, partial curve].

Regarding `CC(C)n1c(SCC(=O)N2c3ccccc3Sc3ccccc32)nc2c1c(=O)n(C)c(=O)n2C`, the AC50 was 1.26 µM [rising, partial curve].

On to `CC[N+](CC)(CC)C/C(N)=N/O`, for which the AC50 was 5.01 µM [falling, full curve, poor fit].

As to `COc1ccccc1N=c1scc(-c2ccc3c(c2)NC(=O)CO3)n1CC1CCCO1` (centres undefined), the AC50 was 3.98 µM [falling, partial curve].

Consider `COCCN1C(=O)c2oc3cc(C)c(C)cc3c(=O)c2C1c1cccc(O)c1` (centres undefined), for which the AC50 is 25.1 µM [rising, single point].

With `NC1CCN(c2cccc(Cl)n2)CC1`, the AC50 was 0.0316 µM [falling, full curve, poor fit].

As for `CCN(CC)c1cc2nonc2c2nonc12`, the half-maximal activity concentration (AC50) was 0.0158 µM [falling, full curve].

On to `CCOC(=O)N1CCN(C(=O)Cn2cc3c(n2)CCCC3)CC1`, for which the AC50 is 0.126 µM [falling, full curve, poor fit].

As to `Cc1ccc(-n2c(SCC(=O)Nc3nccs3)nc3c(c2=O)SCC3)cc1`, the concentration at half-maximal activity (AC50) was 20 µM [rising, single point].

As to `Cn1c(=O)n(C)c2cc(NC(=O)C(F)(F)F)ccc21`, the AC50 is 10 µM [rising, single point].

As for `Cc1ccc(-c2nnn(CCC(=O)N3CCCCC3C)n2)cc1` (centres undefined), the half-maximal activity concentration (AC50) is 0.0794 µM [falling, single point].

For `O=C(NC1=NCCS1)c1ccncc1`, the AC50 is 0.158 µM [falling, single point].

For the molecule `Cc1cccn2c(=O)c3cc(C(=O)NC4CCCC4)c(=N)n(C4CCCC4)c3nc12`, the concentration at half-maximal activity (AC50) is 5.01 µM [rising, partial curve].

Take `CCc1nc(SCC(=O)Nc2ccc3c(c2)OCCO3)c2oc3ccccc3c2n1`: the AC50 is 0.316 µM [rising, full curve].

For the molecule `O=c1[nH]c(=S)[nH]c2c1CN(CCCN1CCOCC1)CN2`, the AC50 was 3.98 µM [rising, single point].

Regarding `O=C(CCC(=O)c1cccs1)OCc1nnc(-c2ccccc2)o1`, the AC50 was 3.98 µM [falling, single point].

For the molecule `CCOC(=O)C(C(=O)OCC)c1cc(Br)c2noc3c2c1C(=O)c1ccccc1-3`, the concentration at half-maximal activity (AC50) was 10 µM [falling, partial curve].

Take `CC1CCOC2(O1)C(=O)N(CN1CCN(c3ccccc3F)CC1)c1ccccc12` (centres undefined): the concentration at half-maximal activity (AC50) was 1.26 µM [falling, full curve].

As to `O=C(CSc1cccc(C(F)(F)F)c1)N1CCN(S(=O)(=O)c2ccccc2)CC1`, the AC50 was 0.01 µM [falling, full curve].

As for `CC(C)C[C@H](N)c1nnc(S(=O)(=O)Cc2cccc(F)c2)o1`, the AC50 is 6.31 µM [falling, partial curve].

As for `CCOC(=O)c1ccccc1NC(=O)c1c(O)c2ccccc2n(CC)c1=O`, the AC50 was 7.94 µM [rising, single point].

With `C/C(=C\CNc1ncnc2nc[nH]c12)CO`, the AC50 is 31.6 µM [falling, single point].

Regarding `N#CC(C(=O)OC1CCCCC1)c1nc2ccccc2nc1N1CCCCC1` (centres undefined), the concentration at half-maximal activity (AC50) is 10 µM [rising, partial curve].

Turning to `O=C(NCC1CCCO1)C1C2C=CC3(CN(Cc4cccs4)C(=O)C13)O2` (centres undefined), the concentration at half-maximal activity (AC50) was 10 µM [falling, partial curve].

Regarding `Cc1cccc(Nc2nc(NC(C)C)nc(Oc3ccc(=O)n(C)n3)n2)c1`, the AC50 is 15.8 µM [rising, single point].

For `c1ccc(CNc2ncnc3ccc(-c4cccnc4)cc23)cc1`, the AC50 was 3.16 µM [rising, full curve, poor fit].

Turning to `COC(=O)CN(c1ccc(F)cc1)S(=O)(=O)c1ccc2c(c1)OCCO2`, the AC50 was 0.00316 µM [falling, full curve, poor fit].

As to `CCNc1ncc2nc(-c3ccc(Cl)cc3)c(=O)n(-c3ccc(OC)cc3)c2n1`, the AC50 is 2.51 µM [rising, full curve].

For `Cc1onc(-c2ccccc2)c1C(=O)N1CCOCC1`, the half-maximal activity concentration (AC50) was 5.01 µM [falling, single point].

As to `Cc1c(C(=O)OCC2CCCO2)[nH]c2c1C(=O)CC(c1ccc(N(C)C)cc1)C2` (centres undefined), the AC50 is 25.1 µM [falling, single point].

For `O=C(NCc1ccc2c(c1)OCO2)c1ccc(NS(=O)(=O)c2ccc3c(c2)OCCO3)cc1`, the concentration at half-maximal activity (AC50) is 25.1 µM [falling, single point].

Regarding `Cc1nn(CCC(=O)O)c2nc(-c3cccnc3)cc(C(F)(F)F)c12`, the AC50 was 10 µM [rising, partial curve].

Regarding `COC(=O)c1cccc(Nc2nc3ccccc3nc2C)c1`, the half-maximal activity concentration (AC50) was 5.01 µM [rising, partial curve].

Consider `Cn1cnnc1Sc1nc2ccccc2nc1NS(=O)(=O)c1ccccc1`, for which the concentration at half-maximal activity (AC50) is 3.98 µM [falling, partial curve].

Take `CNc1nnc(-c2cc3ccccc3oc2=O)s1`: the concentration at half-maximal activity (AC50) is 10 µM [rising, partial curve].

Regarding `O=C1CC(N2CCN(c3nc4ccccc4s3)CC2)C(=O)N1c1ccc(F)cc1` (centres undefined), the AC50 was 0.794 µM [rising, single point].

Take `O=C(NCc1cccs1)c1cc2c(s1)-c1ccccc1OC2`: the concentration at half-maximal activity (AC50) was 15.8 µM [rising, partial curve].

As to `Cn1c(=O)c(C(=O)CN2CCOCC2)c(N)n(Cc2ccccc2)c1=O`, the AC50 was 0.00398 µM [rising, full curve, poor fit].

`Cc1nc2ccc(CCO)cc2s1`: the AC50 is 0.1 µM [rising, full curve].

`Cc1ccc(N2CCCCn3c2nc2c3c(=O)[nH]c(=O)n2C)cc1`: the AC50 is 7.94 µM [rising, partial curve].

As for `N#Cc1c(NC(=O)CN2CCOCC2)oc(-c2ccccc2)c1-c1ccccc1`, the half-maximal activity concentration (AC50) was 25.1 µM [rising, single point].

Consider `COC(=O)c1c(-c2ccc(F)cc2)noc1N`, for which the half-maximal activity concentration (AC50) is 15.8 µM [rising, partial curve, poor fit].
